Like-named read-outs stand apart in the source and are kept apart here. No constants are given. Whether binding was seen depends on the method and setting. In cells and extracts the contact can be indirect. Binding can be weak; no strength is given. For some of these results: Where a sequence is shown, tags or fusion partners need not be part of it.
Key:
Test in all cases: co-IP
[1] = biological target: HA-tagged RUFY (RUFY1/CG31064) (Drosophila)
[2] = biological target: myc-tagged RUFY (RUFY1/CG31064) (Drosophila)
[3] = biological target: HA-tagged RUFY (RUFY1/CG31064) (Drosophila); remark: listed apart in the source

By UniProt entry, the sequences of proteins in these tests, tags left out. Where a name states a change or a piece, a line headed by the entry shows the natural chain unless it says otherwise.
UniProt O18333: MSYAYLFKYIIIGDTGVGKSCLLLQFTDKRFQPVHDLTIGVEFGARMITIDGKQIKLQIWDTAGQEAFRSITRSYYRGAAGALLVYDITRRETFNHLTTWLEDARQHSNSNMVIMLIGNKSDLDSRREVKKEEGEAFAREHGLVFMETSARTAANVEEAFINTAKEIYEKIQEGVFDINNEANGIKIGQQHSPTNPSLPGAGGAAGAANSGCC

binding [3]	Molecule	other results
	myc-tagged Rab2 Q65L (from UniProt O18333 1-213)	binding [1]: binds
	HA-tagged GTP-locked, constitutively active Rab2 Q65L (from UniProt O18333 1-213)	binding [2]: binds weakly
binds	myc-tagged full length Sunday Driver (Syd/dJIP3/4) (protein, UniProt Q9GQF1 1-1227) MMDNDDALLNNGGPQSGAETVYGTEDNNMVMSEKNEQVVSIVQQLAGSIYQEFERMINRYDEDVVKNLMPLLVNVLECLDASYRINQEQDVEVELLREDNEQLVTQYEREKSARKQSEQKLLEAEDLAEQENKELATRLESVESIVRMLELKHKNSLEHASRLEEREADLKKEYNKLHERYTELFKNHVDYMERTKMLMGSTHSQMSTASERMDVSRARLNPVARSSGPVSYGFASLENSVMLDTETICSVGSQSDDSGPPSLQNELDNLSGTLERGAATDALQQQHHATSPQSPDSSPVVPNVPTNVGRSTTKKEQRSDNNLYQELSFQDNEESEENEIVTGSWVHPGEYASSANDNYFGMGKEVENLIMENNELLATKNALNIVKDDLIVKVDELTGEVEIVREELNAMQQSRTKLRQRISELEDELKKAKEQVKQQNTEQEENDVPLAQRKRFTRVEMAMVLMERNQYKERLMELQEAVRLTEILRASRTVDNLDRKSKQSIWKYFSNLFTPSNRPTERVADGLGGGPMFRHTGGGSPAHSHGSPSRGSGGGDNRLALTSGQPPVHPASAGLANALIMPKDYAEEGSSERISARRREQYRQLRAHVQKEDGRLHAYGWSLPINKASQEANPNRHSGGVPVPVYCNPLAEASPHMKVFCAAGVNLHGGFTKNGQSLIPANSPYAPKSTLKIAEITSPTADQSMEALDRQMARVSLETLEPETQLSSFVWICTSTHAASTVSVVDANQSATVLDAFPICASHLLCIASVQGAMESDYALLEQSEVVKAGEMLQRPGEGTELLGKVEFVRVKPKSDDEQNSNEKQQQEEEEAKEATEKSNEQLPAVSAEEPLGNVEAIKIRQPLPGAPQRLSTDGNQTNNNNNSSSSSNLLFATKSLNPILETKDRDEPAMSSVGPTMWLGAQDGWLYVHSSVGRWHECLHRVLLPDAVLAIVHVEARVVVALANAQLAVFRRQTDGQWDLNSYHLVTLGDRNHSIRCLCVAGERIWAAHRNKIFIVDPVSLNIVHSLDAHPRKESQVRQMAATGAGVWVSIRLDSTLRLYNTHTFEHKQDVDIEPYVSKMLGTGKLGFSFVRITALMVSCNRLWIGTSNGVIISVPLAEVQPKSSSDPHGQMPLCCMANAQLSFHGHRDAVKFFVSVPMLQQPNLNGGLTFTNKRPDMLVMCGGEGYIDFRINDNDMENSIQLEPNQTIENRGDKSYLIVWHVSQR	
binds	V5-tagged Arl8 (protein, UniProt Q9VHV5 1-186) MLALINRILEWFKSIFWKEEMELTLVGLQFSGKTTFVNVIASGQFAEDMIPTVGFNMRKITRGNVTIKVWDIGGQPRFRSMWERYCRGVNAIVYMVDAADLDKLEASRNELHSLLDKPQLAGIPVLVLGNKRDLPGALDETGLIERMNLSSIQDREICCYSISCKEKDNIDITLQWLIQHSKSQSR	

From paper doi:10.1101/2025.05.28.656585
